Source: paper PMC9733950

Sequences of proteins named here, by UniProt entry; tags and fusion partners are left off. A change or cut given only in a name is not applied to a line headed by its entry.
UniProt A0A1E3BGW2: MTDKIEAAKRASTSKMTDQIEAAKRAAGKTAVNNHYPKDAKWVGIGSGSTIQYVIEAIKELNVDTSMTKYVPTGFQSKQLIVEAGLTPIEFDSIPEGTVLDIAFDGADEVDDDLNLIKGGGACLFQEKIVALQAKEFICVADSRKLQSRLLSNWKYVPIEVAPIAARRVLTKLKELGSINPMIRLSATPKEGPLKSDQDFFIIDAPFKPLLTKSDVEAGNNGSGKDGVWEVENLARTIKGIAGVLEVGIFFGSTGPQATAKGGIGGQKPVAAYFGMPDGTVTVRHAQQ
UniProt A0A1E3BK58: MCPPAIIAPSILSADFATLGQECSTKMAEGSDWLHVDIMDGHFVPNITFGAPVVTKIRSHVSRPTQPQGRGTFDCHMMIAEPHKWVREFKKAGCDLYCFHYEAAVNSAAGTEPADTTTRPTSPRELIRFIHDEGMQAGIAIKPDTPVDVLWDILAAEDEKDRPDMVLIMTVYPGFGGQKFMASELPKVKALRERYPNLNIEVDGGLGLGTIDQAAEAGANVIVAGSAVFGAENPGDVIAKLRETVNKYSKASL
UniProt A0A1E3BD42: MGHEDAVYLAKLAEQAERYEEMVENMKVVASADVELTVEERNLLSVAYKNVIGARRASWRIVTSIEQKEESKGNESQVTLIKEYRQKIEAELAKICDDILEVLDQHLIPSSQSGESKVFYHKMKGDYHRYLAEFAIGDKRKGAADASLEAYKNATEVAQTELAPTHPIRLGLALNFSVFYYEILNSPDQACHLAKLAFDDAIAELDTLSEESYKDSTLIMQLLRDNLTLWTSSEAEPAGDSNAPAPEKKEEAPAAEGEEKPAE
UniProt A0A1E3B0Z7: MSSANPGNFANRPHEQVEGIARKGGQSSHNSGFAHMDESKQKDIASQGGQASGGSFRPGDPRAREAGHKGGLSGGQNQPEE
UniProt A0A1E3BER4: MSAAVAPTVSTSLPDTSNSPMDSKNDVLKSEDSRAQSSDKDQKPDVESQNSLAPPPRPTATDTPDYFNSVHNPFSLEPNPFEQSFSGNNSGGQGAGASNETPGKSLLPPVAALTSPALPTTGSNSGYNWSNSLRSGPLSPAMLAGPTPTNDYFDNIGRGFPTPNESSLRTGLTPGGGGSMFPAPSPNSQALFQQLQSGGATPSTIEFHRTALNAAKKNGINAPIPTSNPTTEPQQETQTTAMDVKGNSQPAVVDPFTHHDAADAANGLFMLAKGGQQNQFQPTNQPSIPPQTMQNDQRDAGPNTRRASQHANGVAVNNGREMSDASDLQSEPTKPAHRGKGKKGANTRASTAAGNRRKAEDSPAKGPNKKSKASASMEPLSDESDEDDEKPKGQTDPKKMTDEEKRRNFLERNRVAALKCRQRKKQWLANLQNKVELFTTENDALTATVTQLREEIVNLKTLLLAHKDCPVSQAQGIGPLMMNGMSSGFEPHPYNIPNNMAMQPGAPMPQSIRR
UniProt A0A1E3B0F0: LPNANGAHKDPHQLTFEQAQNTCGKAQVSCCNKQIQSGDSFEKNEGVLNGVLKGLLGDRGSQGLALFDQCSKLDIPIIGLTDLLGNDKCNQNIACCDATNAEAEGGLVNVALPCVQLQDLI
UniProt A0A1E3B8J2: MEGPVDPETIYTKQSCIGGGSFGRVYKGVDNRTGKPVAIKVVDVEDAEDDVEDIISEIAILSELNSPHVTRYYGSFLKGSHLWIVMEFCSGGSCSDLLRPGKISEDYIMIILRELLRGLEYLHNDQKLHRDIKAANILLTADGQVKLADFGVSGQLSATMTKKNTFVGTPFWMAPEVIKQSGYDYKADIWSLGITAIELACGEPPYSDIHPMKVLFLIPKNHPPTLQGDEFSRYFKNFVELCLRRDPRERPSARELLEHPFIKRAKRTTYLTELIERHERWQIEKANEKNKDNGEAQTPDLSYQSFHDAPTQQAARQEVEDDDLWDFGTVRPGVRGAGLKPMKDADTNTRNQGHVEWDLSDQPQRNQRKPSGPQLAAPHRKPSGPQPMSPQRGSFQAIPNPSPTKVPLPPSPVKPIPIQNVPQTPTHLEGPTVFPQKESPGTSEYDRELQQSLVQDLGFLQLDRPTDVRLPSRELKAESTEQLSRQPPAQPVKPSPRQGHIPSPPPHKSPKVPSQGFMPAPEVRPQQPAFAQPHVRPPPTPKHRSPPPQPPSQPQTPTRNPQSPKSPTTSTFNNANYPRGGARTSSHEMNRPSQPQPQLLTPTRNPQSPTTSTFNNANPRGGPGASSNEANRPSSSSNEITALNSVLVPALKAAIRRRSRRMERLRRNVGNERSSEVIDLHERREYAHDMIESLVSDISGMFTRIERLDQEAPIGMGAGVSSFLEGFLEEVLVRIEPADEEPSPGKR
UniProt A0A1E3B957: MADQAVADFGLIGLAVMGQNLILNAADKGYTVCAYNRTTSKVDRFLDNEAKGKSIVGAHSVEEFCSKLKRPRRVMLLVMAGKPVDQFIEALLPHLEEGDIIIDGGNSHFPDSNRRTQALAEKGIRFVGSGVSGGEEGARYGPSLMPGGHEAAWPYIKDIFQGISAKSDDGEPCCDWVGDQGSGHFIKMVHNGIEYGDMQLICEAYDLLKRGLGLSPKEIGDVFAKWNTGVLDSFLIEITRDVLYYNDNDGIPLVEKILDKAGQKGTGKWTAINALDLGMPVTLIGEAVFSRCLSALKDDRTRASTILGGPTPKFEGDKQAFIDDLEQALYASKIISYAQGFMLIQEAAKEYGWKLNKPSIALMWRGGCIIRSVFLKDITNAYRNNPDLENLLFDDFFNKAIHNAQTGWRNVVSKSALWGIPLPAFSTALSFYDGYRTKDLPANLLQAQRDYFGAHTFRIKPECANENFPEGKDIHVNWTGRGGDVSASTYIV
UniProt A0A1E3BB62: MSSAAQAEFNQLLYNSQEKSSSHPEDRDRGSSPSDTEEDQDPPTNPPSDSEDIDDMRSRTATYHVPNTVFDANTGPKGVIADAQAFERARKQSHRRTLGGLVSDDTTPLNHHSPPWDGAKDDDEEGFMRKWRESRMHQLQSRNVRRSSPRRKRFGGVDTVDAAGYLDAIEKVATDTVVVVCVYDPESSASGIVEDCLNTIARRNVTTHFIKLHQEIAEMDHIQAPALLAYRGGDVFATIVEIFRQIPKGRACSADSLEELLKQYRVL
UniProt A0A1E3BC73: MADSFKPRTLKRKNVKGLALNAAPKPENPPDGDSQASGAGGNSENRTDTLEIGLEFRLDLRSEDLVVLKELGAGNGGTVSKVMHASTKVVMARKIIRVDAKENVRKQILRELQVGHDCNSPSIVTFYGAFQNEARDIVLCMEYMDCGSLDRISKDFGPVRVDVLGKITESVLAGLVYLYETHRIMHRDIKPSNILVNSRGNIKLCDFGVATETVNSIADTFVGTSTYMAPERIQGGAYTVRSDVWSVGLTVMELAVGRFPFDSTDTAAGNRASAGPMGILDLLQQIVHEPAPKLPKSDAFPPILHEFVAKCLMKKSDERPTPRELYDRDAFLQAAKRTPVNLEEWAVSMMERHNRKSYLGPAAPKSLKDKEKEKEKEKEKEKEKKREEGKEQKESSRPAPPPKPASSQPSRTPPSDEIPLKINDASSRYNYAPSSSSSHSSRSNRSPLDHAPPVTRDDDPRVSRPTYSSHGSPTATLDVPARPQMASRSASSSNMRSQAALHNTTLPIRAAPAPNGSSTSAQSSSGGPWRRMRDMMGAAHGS
UniProt A0A1E3BMS4: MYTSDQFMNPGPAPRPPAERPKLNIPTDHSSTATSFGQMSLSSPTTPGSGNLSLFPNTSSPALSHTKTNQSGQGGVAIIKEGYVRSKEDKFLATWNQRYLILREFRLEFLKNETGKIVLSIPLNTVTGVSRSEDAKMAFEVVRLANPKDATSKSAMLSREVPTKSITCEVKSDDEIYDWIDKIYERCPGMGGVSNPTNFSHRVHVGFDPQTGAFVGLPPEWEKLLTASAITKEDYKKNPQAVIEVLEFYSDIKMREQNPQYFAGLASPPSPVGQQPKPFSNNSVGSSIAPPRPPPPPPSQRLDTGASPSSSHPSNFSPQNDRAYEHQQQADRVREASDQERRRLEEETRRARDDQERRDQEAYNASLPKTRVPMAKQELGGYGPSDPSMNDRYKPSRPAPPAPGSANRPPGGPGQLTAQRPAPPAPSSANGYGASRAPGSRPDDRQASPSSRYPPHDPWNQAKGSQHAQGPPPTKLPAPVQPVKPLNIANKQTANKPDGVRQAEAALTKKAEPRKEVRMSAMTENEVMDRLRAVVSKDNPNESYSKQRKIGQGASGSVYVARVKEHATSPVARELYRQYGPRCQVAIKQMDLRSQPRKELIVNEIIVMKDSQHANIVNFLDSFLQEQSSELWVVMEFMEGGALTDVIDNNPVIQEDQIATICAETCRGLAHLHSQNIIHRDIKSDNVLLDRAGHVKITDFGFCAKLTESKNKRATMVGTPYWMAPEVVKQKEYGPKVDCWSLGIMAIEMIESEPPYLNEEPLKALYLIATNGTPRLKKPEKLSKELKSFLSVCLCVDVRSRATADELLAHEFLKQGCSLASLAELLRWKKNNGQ
UniProt A0A1E3B873: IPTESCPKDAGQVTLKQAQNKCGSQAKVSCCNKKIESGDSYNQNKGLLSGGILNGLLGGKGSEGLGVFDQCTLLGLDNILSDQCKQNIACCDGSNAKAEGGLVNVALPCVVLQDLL

biological target: GST-AcHog1 fusion protein (Aspergillus cristatus); experiment: affinity purification with mass spectrometry; GST-AcHog1 pull-down from total proteins of A. cristatus cultivated under normal osmotic stress (WT-D) and hypertonic stress (WT-H, MYA with 3 M NaCl, 7 days); proteins detected by LC-MS/MS; only the target purified

| binding | Substance |
| --- | --- |
| binds | A0A1E3BGW2 (from UniProt A0A1E3BGW2) |
| binds | A0A1E3BK58 (from UniProt A0A1E3BK58) |
| binds | AcBmh1 (endogenous) (from UniProt A0A1E3BD42) |
| binds | AcCsp (endogenous) (from UniProt A0A1E3B0Z7) |
| binds | AcSko1 (endogenous) (from UniProt A0A1E3BER4) |
| binds | RodA (endogenous) (from UniProt A0A1E3B0F0) |
| binds | Ste20 (endogenous) (from UniProt A0A1E3B8J2) |

Continued, substance first:

| Substance | binding |
| --- | --- |
| 6-phosphogluconate dehydrogenase (A0A1E3B957) (from UniProt A0A1E3B957) (enzyme) | binds |
| AcPhnA (endogenous) (from UniProt A0A1E3BB62) | binds |
| AcSte7 (endogenous) (from UniProt A0A1E3BC73) | binds |
| Cla4 (endogenous) (from UniProt A0A1E3BMS4) | binds |
| RodB (endogenous) (from UniProt A0A1E3B873) | binds |

No constants are given. Whether binding was seen depends on the method and setting. In cells and extracts the contact can be indirect. Here binding means that the protein was enriched with, or labelled near, the bait; the list need not be complete.
